US5422118A, “Transdermal administration of amines with minimal irritation and high transdermal flux rate” (priority 1992, dated 1995)
Counter-ions that a name gives are not always drawn.

System: skin
Conditions: procedure not specified

## CN(C)CCOC(c1ccccc1)c1ccccc1 [diphenhydramine hydrochloride]
  skin irritation (in words): minimally irritating
